The record followed here is PMC5746398.

Amino acid sequences for entries named in this document (tags omitted).
UniProt O00429: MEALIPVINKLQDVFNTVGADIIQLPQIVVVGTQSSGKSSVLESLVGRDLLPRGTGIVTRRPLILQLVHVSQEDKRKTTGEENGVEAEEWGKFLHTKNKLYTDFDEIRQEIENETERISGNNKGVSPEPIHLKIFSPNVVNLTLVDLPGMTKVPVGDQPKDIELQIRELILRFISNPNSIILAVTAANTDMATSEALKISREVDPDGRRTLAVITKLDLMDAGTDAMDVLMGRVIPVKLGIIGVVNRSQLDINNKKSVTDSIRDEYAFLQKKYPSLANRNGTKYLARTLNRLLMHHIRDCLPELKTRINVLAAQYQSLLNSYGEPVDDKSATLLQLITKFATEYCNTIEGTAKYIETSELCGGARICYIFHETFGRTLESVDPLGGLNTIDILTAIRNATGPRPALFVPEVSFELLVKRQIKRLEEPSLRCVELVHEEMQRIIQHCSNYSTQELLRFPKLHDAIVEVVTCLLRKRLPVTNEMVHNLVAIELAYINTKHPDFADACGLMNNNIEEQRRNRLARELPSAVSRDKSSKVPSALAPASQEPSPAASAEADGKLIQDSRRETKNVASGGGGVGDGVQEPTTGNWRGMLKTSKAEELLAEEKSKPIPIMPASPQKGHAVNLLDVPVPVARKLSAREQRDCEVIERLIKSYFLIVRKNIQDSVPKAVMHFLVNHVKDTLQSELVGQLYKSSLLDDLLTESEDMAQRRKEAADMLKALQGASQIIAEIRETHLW
UniProt P15104: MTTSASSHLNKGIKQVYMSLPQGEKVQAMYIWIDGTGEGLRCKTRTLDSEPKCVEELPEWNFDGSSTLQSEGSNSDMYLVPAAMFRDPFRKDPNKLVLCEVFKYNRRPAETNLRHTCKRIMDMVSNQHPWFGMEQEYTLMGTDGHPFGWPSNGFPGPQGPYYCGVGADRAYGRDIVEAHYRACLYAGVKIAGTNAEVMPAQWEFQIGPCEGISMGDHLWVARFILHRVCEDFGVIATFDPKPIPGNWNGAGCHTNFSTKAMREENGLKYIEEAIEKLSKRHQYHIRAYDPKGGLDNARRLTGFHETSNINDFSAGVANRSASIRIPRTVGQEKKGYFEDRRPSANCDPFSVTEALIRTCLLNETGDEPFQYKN
UniProt Q9ULT8: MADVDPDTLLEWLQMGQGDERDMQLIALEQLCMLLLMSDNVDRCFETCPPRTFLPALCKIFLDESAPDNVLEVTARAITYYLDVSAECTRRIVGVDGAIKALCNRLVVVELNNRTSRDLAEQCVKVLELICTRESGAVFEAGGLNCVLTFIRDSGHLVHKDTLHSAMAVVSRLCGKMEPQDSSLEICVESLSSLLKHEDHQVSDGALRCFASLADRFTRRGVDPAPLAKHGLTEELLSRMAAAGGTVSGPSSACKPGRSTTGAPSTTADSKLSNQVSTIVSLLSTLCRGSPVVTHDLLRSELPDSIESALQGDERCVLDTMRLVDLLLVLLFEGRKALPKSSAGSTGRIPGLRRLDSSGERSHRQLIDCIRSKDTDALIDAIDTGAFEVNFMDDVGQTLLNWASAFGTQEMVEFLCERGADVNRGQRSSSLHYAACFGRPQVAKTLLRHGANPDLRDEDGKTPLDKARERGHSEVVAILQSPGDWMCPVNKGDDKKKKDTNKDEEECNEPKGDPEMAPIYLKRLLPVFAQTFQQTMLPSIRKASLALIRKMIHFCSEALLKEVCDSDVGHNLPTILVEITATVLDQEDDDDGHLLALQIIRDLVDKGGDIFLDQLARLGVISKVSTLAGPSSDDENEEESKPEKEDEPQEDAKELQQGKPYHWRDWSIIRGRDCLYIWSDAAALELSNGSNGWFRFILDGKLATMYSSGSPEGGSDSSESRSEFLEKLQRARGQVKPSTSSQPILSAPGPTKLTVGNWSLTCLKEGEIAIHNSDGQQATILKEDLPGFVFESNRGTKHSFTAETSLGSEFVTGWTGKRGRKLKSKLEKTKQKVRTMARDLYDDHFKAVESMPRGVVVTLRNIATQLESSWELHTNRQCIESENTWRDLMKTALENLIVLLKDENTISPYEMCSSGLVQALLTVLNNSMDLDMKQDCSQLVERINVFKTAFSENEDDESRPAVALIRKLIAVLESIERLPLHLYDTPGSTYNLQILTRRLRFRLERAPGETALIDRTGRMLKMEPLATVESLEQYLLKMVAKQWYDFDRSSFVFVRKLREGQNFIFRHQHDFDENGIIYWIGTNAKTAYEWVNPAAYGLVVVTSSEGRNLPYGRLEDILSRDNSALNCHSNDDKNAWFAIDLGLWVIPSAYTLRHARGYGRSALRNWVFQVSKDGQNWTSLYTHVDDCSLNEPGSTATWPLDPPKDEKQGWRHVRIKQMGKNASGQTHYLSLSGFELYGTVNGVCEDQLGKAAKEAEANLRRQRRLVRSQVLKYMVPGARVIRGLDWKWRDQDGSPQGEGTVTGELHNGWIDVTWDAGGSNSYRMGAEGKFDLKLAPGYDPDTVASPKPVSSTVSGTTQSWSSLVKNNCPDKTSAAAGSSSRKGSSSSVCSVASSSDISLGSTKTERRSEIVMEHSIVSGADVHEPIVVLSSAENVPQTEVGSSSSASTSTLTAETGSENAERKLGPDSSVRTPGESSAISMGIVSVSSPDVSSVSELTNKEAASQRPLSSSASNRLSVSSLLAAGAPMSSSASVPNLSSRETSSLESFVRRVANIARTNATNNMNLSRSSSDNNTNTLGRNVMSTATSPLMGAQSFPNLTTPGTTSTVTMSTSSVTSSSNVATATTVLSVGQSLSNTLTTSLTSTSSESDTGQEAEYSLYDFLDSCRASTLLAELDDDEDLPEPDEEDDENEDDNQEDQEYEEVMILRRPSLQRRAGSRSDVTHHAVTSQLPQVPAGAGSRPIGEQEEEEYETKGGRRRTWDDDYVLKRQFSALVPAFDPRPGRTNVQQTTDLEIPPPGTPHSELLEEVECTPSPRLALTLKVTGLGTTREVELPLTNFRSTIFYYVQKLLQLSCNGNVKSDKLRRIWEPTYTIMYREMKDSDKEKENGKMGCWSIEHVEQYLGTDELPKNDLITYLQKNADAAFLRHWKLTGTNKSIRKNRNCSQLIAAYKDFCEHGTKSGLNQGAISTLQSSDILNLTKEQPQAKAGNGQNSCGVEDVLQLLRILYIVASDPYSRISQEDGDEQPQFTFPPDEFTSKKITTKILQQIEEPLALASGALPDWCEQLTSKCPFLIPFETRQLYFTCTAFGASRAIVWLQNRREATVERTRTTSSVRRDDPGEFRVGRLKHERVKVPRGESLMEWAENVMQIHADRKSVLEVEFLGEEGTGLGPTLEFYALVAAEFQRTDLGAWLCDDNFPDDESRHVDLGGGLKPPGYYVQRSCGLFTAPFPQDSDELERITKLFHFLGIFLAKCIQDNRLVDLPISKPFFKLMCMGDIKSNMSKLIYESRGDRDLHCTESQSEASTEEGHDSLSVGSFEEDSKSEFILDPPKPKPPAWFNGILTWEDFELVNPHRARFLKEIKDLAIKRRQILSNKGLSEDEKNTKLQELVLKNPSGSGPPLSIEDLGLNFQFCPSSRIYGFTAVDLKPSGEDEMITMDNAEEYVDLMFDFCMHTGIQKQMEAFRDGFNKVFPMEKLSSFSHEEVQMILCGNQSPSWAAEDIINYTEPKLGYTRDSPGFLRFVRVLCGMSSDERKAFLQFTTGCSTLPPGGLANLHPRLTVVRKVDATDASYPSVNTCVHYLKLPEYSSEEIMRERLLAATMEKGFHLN
UniProt Q9H4L5: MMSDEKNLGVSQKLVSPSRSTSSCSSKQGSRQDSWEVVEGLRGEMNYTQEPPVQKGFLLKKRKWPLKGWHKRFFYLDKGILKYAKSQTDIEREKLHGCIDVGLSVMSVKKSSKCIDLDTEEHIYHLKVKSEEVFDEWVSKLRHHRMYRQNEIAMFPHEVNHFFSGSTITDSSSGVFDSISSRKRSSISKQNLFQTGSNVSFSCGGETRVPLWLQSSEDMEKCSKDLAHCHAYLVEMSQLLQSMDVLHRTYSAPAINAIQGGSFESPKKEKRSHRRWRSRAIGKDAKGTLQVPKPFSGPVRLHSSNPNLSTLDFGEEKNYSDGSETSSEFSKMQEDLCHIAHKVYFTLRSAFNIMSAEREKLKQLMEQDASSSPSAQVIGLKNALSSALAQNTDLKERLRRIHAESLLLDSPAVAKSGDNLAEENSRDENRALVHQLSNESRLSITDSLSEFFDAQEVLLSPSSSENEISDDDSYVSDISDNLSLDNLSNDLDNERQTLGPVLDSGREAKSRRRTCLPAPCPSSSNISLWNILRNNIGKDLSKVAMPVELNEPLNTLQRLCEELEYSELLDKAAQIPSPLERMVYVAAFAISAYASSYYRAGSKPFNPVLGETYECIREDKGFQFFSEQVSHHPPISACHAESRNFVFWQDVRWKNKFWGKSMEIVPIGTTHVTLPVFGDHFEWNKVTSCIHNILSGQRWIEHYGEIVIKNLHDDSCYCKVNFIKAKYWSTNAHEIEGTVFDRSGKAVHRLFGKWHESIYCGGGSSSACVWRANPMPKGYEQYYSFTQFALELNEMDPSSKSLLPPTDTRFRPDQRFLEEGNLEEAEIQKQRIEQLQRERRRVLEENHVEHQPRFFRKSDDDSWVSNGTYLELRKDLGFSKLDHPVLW
UniProt P51784: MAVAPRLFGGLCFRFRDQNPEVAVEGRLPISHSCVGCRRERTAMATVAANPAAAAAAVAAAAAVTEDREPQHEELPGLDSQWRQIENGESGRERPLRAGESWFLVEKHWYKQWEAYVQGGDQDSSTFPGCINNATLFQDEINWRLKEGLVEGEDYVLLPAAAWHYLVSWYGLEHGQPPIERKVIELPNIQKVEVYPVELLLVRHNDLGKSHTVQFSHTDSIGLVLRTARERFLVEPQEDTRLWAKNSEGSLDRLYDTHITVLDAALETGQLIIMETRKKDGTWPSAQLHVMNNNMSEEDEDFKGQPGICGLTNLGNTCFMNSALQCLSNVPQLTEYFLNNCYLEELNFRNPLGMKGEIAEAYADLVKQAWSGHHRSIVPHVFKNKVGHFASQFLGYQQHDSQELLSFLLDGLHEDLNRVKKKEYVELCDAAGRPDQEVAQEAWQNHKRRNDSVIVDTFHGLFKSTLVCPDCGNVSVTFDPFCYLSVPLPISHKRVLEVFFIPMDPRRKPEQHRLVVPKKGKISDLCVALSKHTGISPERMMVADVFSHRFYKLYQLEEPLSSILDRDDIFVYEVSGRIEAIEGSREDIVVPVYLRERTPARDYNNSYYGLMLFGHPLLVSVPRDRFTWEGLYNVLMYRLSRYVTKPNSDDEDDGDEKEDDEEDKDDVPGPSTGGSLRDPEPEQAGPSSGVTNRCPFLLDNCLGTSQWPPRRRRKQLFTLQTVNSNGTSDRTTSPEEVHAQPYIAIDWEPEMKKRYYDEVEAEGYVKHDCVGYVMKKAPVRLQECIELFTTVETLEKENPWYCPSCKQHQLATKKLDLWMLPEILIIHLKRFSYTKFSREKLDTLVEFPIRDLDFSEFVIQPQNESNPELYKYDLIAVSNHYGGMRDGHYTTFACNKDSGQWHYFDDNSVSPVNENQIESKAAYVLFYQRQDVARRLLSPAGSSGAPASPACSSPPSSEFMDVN

The labels stand for the following.
B1: Ubiquitin carboxyl-terminal hydrolase 4 (protein, UniProt Q13107 1-963)
chain: MAEGGGCRERPDAETQKSELGPLMRTTLQRGAQWYLIDSRWFKQWKKYVGFDSWDMYNVGEHNLFPGPIDNSGLFSDPESQTLKEHLIDELDYVLVPTEAWNKLLNWYGCVEGQQPIVRKVVEHGLFVKHCKVEVYLLELKLCENSDPTNVLSCHFSKADTIATIEKEMRKLFNIPAERETRLWNKYMSNTYEQLSKLDNTVQDAGLYQGQVLVIEPQNEDGTWPRQTLQSKSSTAPSRNFTTSPKSSASPYSSVSASLIANGDSTSTCGMHSSGVSRGGSGFSASYNCQEPPSSHIQPGLCGLGNLGNTCFMNSALQCLSNTAPLTDYFLKDEYEAEINRDNPLGMKGEIAEAYAELIKQMWSGRDAHVAPRMFKTQVGRFAPQFSGYQQQDSQELLAFLLDGLHEDLNRVKKKPYLELKDANGRPDAVVAKEAWENHRLRNDSVIVDTFHGLFKSTLVCPECAKVSVTFDPFCYLTLPLPLKKDRVMEVFLVPADPHCRPTQYRVTVPLMGAVSDLCEALSRLSGIAAENMVVADVYNHRFHKIFQMDEGLNHIMPRDDIFVYEVCSTSVDGSECVTLPVYFRERKSRPSSTSSASALYGQPLLLSVPKHKLTLESLYQAVCDRISRYVKQPLPDEFGSSPLEPGACNGSRNSCEGEDEEEMEHQEEGKEQLSETEGSGEDEPGNDPSETTQKKIKGQPCPKRLFTFSLVNSYGTADINSLAADGKLLKLNSRSTLAMDWDSETRRLYYDEQESEAYEKHVSMLQPQKKKKTTVALRDCIELFTTMETLGEHDPWYCPNCKKHQQATKKFDLWSLPKILVVHLKRFSYNRYWRDKLDTVVEFPIRGLNMSEFVCNLSARPYVYDLIAVSNHYGAMGVGHYTAYAKNKLNGKWYYFDDSNVSLASEDQIVTKAAYVLFYQRRDDEFYKTPSLSSSGSSDGGTRPSSSQQGFGDDEACSMDTN
B2: Squamous Cell Carcinoma Antigen Recognized By T Cells 3 (SART3) (protein, UniProt Q15020 1-963)
chain: MATAAETSASEPEAESKAGPKADGEEDEVKAARTRRKVLSRAVAAATYKTMGPAWDQQEEGVSESDGDEYAMASSAESSPGEYEWEYDEEEEKNQLEIERLEEQLSINVYDYNCHVDLIRLLRLEGELTKVRMARQKMSEIFPLTEELWLEWLHDEISMAQDGLDREHVYDLFEKAVKDYICPNIWLEYGQYSVGGIGQKGGLEKVRSVFERALSSVGLHMTKGLALWEAYREFESAIVEAARLEKVHSLFRRQLAIPLYDMEATFAEYEEWSEDPIPESVIQNYNKALQQLEKYKPYEEALLQAEAPRLAEYQAYIDFEMKIGDPARIQLIFERALVENCLVPDLWIRYSQYLDRQLKVKDLVLSVHNRAIRNCPWTVALWSRYLLAMERHGVDHQVISVTFEKALNAGFIQATDYVEIWQAYLDYLRRRVDFKQDSSKELEELRAAFTRALEYLKQEVEERFNESGDPSCVIMQNWARIEARLCNNMQKARELWDSIMTRGNAKYANMWLEYYNLERAHGDTQHCRKALHRAVQCTSDYPEHVCEVLLTMERTEGSLEDWDIAVQKTETRLARVNEQRMKAAEKEAALVQQEEEKAEQRKRARAEKKALKKKKKIRGPEKRGADEDDEKEWGDDEEEQPSKRRRVENSIPAAGETQNVEVAAGPAGKCAAVDVEPPSKQKEKAASLKRDMPKVLHDSSKDSITVFVSNLPYSMQEPDTKLRPLFEACGEVVQIRPIFSNRGDFRGYCYVEFKEEKSALQALEMDRKSVEGRPMFVSPCVDKSKNPDFKVFRYSTSLEKHKLFISGLPFSCTKEELEEICKAHGTVKDLRLVTNRAGKPKGLAYVEYENESQASQAVMKMDGMTIKENIIKVAISNPPQRKVPEKPETRKAPGGPMLLPQTYGARGKGRTQLSLLPRALQRPSAAAPQAENGPAAAPAVAAPAATEAPKMSNADFAKLFLRK
B3: Kinesin Family Member 15 (KIF15) (protein, UniProt Q9NS87 1-1388)
chain: MAPGCKTELRSVTNGQSNQPSNEGDAIKVFVRIRPPAERSGSADGEQNLCLSVLSSTSLRLHSNPEPKTFTFDHVADVDTTQESVFATVAKSIVESCMSGYNGTIFAYGQTGSGKTFTMMGPSESDNFSHNLRGVIPRSFEYLFSLIDREKEKAGAGKSFLCKCSFIEIYNEQIYDLLDSASAGLYLREHIKKGVFVVGAVEQVVTSAAEAYQVLSGGWRNRRVASTSMNRESSRSHAVFTITIESMEKSNEIVNIRTSLLNLVDLAGSERQKDTHAEGMRLKEAGNINRSLSCLGQVITALVDVGNGKQRHVCYRDSKLTFLLRDSLGGNAKTAIIANVHPGSRCFGETLSTLNFAQRAKLIKNKAVVNEDTQGNVSQLQAEVKRLKEQLAELASGQTPPESFLTRDKKKTNYMEYFQEAMLFFKKSEQEKKSLIEKVTQLEDLTLKKEKFIQSNKMIVKFREDQIIRLEKLHKESRGGFLPEEQDRLLSELRNEIQTLREQIEHHPRVAKYAMENHSLREENRRLRLLEPVKRAQEMDAQTIAKLEKAFSEISGMEKSDKNQQGFSPKAQKEPCLFANTEKLKAQLLQIQTELNNSKQEYEEFKELTRKRQLELESELQSLQKANLNLENLLEATKACKRQEVSQLNKIHAETLKIITTPTKAYQLHSRPVPKLSPEMGSFGSLYTQNSSILDNDILNEPVPPEMNEQAFEAISEELRTVQEQMSALQAKLDEEEHKNLKLQQHVDKLEHHSTQMQELFSSERIDWTKQQEELLSQLNVLEKQLQETQTKNDFLKSEVHDLRVVLHSADKELSSVKLEYSSFKTNQEKEFNKLSERHMHVQLQLDNLRLENEKLLESKACLQDSYDNLQEIMKFEIDQLSRNLQNFKKENETLKSDLNNLMELLEAEKERNNKLSLQFEEDKENSSKEILKVLEAVRQEKQKETAKCEQQMAKVQKLEESLLATEKVISSLEKSRDSDKKVVADLMNQIQELRTSVCEKTETIDTLKQELKDINCKYNSALVDREESRVLIKKQEVDILDLKETLRLRILSEDIERDMLCEDLAHATEQLNMLTEASKKHSGLLQSAQEELTKKEALIQELQHKLNQKKEEVEQKKNEYNFKMRQLEHVMDSAAEDPQSPKTPPHFQTHLAKLLETQEQEIEDGRASKTSLEHLVTKLNEDREVKNAEILRMKEQLREMENLRLESQQLIEKNWLLQGQLDDIKRQKENSDQNHPDNQQLKNEQEESIKERLAKSKIVEEMLKMKADLEEVQSALYNKEMECLRMTDEVERTQTLESKAFQEKEQLRSKLEEMYEERERTSQEMEMLRKQVECLAEENGKLVGHQNLHQKIQYVVRLKKENVRLAEETEKLRAENVFLKEKKRSES

These are yes or no findings as the source states them, for the method shown. In cells and extracts the contact can be indirect. A yes stands for co-enrichment or nearness to the bait. Other partners may have been found.

This assay addresses T1, Ubiquitin Specific Peptidase 15 (USP15) (human (endogenous in LN-229, LN-428, LN-18)) (UniProt Q9Y4E8).
T1 sequence: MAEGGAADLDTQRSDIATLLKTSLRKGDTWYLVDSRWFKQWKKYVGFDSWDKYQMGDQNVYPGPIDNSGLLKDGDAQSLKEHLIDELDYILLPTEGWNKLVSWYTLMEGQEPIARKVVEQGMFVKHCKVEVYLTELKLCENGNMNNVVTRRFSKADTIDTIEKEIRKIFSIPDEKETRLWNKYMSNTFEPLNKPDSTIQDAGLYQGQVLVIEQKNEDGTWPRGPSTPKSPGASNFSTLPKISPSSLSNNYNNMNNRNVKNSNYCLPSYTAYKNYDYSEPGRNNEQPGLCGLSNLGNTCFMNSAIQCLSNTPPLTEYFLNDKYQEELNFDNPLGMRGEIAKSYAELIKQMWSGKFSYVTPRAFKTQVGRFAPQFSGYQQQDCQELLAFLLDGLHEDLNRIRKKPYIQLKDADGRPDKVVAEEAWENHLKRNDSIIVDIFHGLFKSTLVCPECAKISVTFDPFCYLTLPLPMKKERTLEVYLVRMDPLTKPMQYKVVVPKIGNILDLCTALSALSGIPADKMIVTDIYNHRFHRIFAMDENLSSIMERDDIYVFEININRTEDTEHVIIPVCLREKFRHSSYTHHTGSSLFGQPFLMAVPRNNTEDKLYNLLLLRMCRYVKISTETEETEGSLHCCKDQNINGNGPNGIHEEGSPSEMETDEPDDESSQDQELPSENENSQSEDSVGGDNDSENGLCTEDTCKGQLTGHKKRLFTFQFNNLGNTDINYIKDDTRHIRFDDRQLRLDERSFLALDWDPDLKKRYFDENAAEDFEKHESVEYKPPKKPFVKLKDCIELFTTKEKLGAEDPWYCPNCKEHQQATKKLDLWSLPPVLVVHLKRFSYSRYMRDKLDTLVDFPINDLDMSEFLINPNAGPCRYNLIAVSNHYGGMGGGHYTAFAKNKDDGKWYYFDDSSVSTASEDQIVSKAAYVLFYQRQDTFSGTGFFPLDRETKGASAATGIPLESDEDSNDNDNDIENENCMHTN
Put plainly: affinity purification with mass spectrometry; IP of endogenous USP15 (antibody NB110-40690, 5 ug/mg lysate) from LN-229 lysate (1% NP40, 25 mM Tris pH 7.5, 150 mM NaCl), overnight at 4°C, protein A agarose beads, washes 0.1% Tween-20/PBS; two independent IPs (3 mg and 5 mg protein); control normal rabbit IgG.
In the case of “Complement C4-A (human (endogenous in LN-229))”, the binding entry is “binds”.

In the case of “Dynamin-1-like protein (from UniProt O00429 1-736)”, the binding entry was “binds”.

On to “Glutamine synthetase (from UniProt P15104 1-373)”, for which the binding entry is “binds”.

Regarding “HECT Domain Containing E3 Ubiquitin Protein Ligase 1 (HECTD1) (from UniProt Q9ULT8 1-2610)”, the binding result is recorded as “binds”.

Turning to “Oxysterol Binding Protein-Like 3 (OSBPL3) (from UniProt Q9H4L5 1-887)”, the binding entry is listed as “binds”.

“Ubiquitin carboxyl-terminal hydrolase 11 (from UniProt P51784 1-963)”: the binding entry was “binds”.

Regarding B1, the binding entry is reported as “binds”.

As to B2, the binding entry is given as “binds”.

On to B3, for which the binding entry was “binds”.
